PubChem BioAssay AID504784, Drosophila RNAi Screening Center, 2011

Assay: 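Search for regulators of lipid droplet storage in oleate-fed fly cells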 (primary screen)
Cells: Drosophila Kc167 embryonic cells
Reagents: long dsRNA against Drosophila genes, about 250 ng dsRNA per well
Duration: 4 days
Conditions: cells fed 400 µM oleic acid bound to BSA
Read-out: 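Microscope images give a droplet-to-nucleus area ratio, taken as log and converted to a screen-wide B-score; higher values mean greater lipid storage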
Reading the numbers: droplet/nuclear area B-score: higher = more stored lipid (overstorage)
In all, the deposit lists about 17,000 reagents; shown is a random part of those with a known target gene and a result. 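Each column is one replicate's B-score; the combined score over replicates was not deposited, so single values may mislead.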 Reagents against one gene are numbered here. Names joined by + are all predicted targets of the reagent.

target	reagent no.	droplet/nuclear area B-score, replicate 1	droplet/nuclear area B-score, replicate 2	droplet/nuclear area B-score, replicate 3
CG15333	1	0.15	0.629	
CG15333	2	-0.126	0.36	
blw	1	3.83	2.76	
nAChRalpha1	1	1.49	0.0544	
nAChRalpha1	2	-1.38	-2.19	
nAChRalpha1	3	0.75	-1.15	
nAChRalpha1	4	1.63	0.29	
CG31549	1	1.09	0.754	
CG5498	1	0.411	0.0956	-0.502
Ssl	1	-3.4	0.146	
CG8192	1	-0.208	1.63	
ERp44	1	-0.242	0.949	0.716
CG18745	1	-0.267	0.771	
Lrt	1	0.345	-0.0977	
CG15357	1	0.144	1.54	
CG31848	1	2.21	0.877	
pxb	1	-1.54	-0.263	
pxb	2	-6.13	-6.25	
pxb	3	0.223	-0.847	
pxb	4	-1.28	-1.74	
CG9737	1	-0.24	0.862	
Sec3	1	-0.157	0.73	-0.0482
CG3348	1	1.49	-0.172	
CG18636	1	-1.31	-0.269	
MTA1-like	1	-5.12	-2.98	
MTA1-like	2	-0.621	0.567	
CG5273	1	-0.174	-0.903	
Sb	1	-1.99	-0.383	
ocn	1	1.14	1.16	
CG31249	1	-1.92	0.797	
Suv3	1	-0.979	-0.375	1.51
CG42568 + DnaJ-60	1	3.28	3.85	
CG42568 + DnaJ-60	2	-0.789	0.669	
CG12661	1	-0.0766	1.21	
gcm2	1	0.432	0.00384	
Trs20	1	-1.78	1.16	
CG34425	1	0.0556	-0.131	
CG34425	2	-0.932	0.215	
Ir60d	1	0.11	-0.12	
cona	1	1.44	0.918	
CG11398	1	-0.301	-1.26	
mdy	1	-3.73	-3.62	
mdy	2	-3.41	0.626	
RpS27A	1	2.77	2.29	
CG13404	1	0.889	5.66	
CG32388	1	0.658	2.25	
CG31523	1	-0.0839	0.174	
CG31523	2	1.32	-0.0075	-0.235
CG5961	1	-0.161	0.615	
Gal	1	1.38	-0.0371	
Rpp14b	1	-0.173	0.546	
CkIIalpha	1	-0.746	0.19	
LysB	1	-1.33	-0.914	
stas	1	-1.78	0.606	
CG5162	1	-0.123	-2.83	
nxf2	1	1.38	1.82	-0.769
CG8860	1	2	1.35	
CG9406	1	2.23	-0.0102	
CG13531	1	0.723	-0.812	
eIF1A	1	2.76	-0.42	
Graf	1	0.00895	1.4	0.749
CG8773	1	0.036	-0.103	
CG42304 + Snup	1	2.53	1.61	
CG42304 + Snup	2	0.519	1.61	
CG42304 + Snup	3	-0.129	-3.19	
ana3	1	-0.515	-1.67	
l(2)k05911	1	0.735	-0.674	
Rab21	1	-0.364	-1.37	
smg	1	-0.257	-0.653	
ZnT35C	1	-1.04	-0.558	
His3.3B	1	-0.232	-1.61	0.163
His3.3B	2	1.45	0.683	-0.825
eIF4E7	1	-1.64	-2.18	
eIF4E7	2	1.3	-1.48	
CG5846	1	1.65	0.0166	
CG4829	1	-0.086	-0.271	
ValRS-m	1	-0.000308	-1.72	
Arts + Apl	1	1.44	1.51	
CG9920	1	-0.79	-1.14	
Spn100A	1	-1.55	1.37	
CG17821	1	0.0964	-0.0023	
CG1701	1	0.058	0.198	
MstProx + Mst84Da	1	0.00145	-0.0354	
